Test results reported in paper PMC7105142.
Like-named read-outs stand apart in the source and are kept apart here. These are yes or no findings as the source states them, for the method shown. In cells and extracts the contact can be indirect. These calls come from enrichment with a bait or labelling near it, and not all partners need be listed. For some assays here: A no says only that the protein was not detected with the bait.

Sequences of proteins named here, by UniProt entry; tags and fusion partners are left off.
UniProt P53538: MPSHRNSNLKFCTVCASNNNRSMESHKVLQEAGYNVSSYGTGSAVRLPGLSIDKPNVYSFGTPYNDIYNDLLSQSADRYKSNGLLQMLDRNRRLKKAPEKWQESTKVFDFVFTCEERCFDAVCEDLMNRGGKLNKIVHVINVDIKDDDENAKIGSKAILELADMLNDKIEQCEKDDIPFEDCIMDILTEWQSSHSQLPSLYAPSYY
UniProt P39081: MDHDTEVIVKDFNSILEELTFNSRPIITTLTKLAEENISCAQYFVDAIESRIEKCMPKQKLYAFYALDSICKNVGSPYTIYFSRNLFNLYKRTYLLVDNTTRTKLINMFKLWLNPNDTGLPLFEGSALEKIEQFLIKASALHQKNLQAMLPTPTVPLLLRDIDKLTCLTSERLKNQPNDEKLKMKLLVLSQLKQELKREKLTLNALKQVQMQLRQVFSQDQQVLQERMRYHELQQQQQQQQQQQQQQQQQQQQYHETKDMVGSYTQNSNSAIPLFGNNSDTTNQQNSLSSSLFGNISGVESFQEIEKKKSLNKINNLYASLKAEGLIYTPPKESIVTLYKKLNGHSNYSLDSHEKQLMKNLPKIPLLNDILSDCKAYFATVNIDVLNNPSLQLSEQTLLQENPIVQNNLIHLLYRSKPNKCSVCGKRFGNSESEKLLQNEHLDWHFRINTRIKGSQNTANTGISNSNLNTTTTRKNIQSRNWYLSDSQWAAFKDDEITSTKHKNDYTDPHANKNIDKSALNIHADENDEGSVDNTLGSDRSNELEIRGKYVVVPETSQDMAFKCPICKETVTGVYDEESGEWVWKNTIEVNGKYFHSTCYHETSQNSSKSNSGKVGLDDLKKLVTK
UniProt Q00416: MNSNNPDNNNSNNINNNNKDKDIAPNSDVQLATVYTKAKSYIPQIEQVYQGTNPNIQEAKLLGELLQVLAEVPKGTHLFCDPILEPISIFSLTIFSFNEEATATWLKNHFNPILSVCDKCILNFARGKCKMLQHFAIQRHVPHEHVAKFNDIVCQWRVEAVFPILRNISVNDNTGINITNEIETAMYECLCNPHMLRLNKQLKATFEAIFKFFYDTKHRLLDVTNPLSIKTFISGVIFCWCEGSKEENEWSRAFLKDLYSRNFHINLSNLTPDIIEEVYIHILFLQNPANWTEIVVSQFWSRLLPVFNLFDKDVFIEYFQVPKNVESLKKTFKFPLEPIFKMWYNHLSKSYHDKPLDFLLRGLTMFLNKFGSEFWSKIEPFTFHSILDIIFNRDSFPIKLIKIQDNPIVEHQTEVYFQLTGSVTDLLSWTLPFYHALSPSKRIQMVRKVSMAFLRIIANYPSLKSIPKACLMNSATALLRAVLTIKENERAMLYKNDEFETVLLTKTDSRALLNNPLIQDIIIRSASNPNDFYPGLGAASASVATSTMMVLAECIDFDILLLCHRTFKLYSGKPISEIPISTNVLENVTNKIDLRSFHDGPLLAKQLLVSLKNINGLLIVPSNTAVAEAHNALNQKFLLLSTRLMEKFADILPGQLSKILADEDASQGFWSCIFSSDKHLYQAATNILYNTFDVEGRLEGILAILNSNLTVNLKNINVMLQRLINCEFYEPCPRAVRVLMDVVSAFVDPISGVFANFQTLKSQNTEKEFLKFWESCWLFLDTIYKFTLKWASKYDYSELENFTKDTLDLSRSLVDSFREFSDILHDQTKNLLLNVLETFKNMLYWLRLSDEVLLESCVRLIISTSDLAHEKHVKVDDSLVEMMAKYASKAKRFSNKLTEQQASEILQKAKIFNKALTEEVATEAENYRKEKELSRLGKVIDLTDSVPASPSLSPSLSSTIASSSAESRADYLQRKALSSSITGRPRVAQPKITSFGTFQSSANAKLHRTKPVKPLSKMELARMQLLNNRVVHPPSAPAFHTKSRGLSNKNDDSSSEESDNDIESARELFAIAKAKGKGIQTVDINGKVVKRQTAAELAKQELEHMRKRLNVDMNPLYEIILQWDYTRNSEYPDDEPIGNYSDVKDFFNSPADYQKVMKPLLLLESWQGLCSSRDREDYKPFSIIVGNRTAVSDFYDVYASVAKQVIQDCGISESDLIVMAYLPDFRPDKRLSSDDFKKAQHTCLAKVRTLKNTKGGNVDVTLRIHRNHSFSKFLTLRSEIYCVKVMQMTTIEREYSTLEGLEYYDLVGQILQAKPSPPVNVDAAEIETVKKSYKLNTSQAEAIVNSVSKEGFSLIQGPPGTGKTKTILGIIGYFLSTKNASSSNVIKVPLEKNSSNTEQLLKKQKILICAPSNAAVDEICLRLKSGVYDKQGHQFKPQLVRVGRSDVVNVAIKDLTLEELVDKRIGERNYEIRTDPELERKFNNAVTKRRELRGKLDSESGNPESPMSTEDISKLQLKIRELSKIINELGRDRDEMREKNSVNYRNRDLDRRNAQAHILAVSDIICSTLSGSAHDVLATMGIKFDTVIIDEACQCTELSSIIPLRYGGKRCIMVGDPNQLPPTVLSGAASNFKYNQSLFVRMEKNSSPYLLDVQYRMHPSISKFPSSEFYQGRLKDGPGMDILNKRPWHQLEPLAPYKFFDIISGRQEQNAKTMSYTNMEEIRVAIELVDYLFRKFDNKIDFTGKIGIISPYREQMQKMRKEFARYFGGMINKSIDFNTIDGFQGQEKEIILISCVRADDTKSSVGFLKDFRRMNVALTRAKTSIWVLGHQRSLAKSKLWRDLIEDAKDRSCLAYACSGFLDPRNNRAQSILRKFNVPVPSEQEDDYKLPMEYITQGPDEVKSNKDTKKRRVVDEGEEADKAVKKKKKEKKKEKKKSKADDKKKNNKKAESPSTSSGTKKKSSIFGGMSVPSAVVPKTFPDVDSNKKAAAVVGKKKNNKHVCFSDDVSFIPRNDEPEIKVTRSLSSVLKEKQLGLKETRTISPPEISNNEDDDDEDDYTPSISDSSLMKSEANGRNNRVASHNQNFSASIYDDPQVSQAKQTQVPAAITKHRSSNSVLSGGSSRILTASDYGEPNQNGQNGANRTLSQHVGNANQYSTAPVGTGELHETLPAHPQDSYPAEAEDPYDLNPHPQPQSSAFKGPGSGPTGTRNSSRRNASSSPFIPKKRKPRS
UniProt P34160: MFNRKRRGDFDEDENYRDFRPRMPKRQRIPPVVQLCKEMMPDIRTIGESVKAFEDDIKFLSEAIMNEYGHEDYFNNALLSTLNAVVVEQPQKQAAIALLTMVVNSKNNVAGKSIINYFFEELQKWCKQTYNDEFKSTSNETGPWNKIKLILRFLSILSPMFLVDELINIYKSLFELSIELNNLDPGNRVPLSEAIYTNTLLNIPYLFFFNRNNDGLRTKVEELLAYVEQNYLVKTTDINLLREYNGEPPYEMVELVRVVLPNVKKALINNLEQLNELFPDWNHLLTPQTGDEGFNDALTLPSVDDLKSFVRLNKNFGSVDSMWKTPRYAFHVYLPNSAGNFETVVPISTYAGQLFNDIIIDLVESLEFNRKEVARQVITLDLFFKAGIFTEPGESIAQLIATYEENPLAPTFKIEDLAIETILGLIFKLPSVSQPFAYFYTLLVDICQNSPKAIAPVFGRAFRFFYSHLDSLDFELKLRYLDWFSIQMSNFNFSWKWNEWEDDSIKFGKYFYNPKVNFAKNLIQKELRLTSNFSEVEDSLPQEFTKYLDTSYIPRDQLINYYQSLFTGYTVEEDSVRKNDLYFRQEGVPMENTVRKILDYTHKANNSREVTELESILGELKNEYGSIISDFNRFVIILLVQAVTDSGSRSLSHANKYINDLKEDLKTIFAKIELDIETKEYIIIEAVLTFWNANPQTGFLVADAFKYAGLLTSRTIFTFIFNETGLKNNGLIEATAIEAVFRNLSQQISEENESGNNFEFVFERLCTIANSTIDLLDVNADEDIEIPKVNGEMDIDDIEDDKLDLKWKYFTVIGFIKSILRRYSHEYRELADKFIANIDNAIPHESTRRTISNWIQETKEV
UniProt P29468: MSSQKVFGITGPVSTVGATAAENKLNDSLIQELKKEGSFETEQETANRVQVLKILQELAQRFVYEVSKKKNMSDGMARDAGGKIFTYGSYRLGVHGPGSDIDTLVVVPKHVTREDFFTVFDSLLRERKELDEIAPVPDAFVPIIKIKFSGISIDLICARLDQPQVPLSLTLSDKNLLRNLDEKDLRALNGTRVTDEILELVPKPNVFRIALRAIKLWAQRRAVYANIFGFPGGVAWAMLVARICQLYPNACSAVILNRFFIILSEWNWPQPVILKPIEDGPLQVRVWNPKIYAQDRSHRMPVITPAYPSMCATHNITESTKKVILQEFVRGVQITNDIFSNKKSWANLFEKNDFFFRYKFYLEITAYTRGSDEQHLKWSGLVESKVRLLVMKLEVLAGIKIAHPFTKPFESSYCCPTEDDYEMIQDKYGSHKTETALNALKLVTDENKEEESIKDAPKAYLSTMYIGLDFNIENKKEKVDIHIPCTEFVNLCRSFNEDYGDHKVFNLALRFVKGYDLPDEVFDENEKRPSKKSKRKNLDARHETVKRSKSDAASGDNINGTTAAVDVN
UniProt P08518: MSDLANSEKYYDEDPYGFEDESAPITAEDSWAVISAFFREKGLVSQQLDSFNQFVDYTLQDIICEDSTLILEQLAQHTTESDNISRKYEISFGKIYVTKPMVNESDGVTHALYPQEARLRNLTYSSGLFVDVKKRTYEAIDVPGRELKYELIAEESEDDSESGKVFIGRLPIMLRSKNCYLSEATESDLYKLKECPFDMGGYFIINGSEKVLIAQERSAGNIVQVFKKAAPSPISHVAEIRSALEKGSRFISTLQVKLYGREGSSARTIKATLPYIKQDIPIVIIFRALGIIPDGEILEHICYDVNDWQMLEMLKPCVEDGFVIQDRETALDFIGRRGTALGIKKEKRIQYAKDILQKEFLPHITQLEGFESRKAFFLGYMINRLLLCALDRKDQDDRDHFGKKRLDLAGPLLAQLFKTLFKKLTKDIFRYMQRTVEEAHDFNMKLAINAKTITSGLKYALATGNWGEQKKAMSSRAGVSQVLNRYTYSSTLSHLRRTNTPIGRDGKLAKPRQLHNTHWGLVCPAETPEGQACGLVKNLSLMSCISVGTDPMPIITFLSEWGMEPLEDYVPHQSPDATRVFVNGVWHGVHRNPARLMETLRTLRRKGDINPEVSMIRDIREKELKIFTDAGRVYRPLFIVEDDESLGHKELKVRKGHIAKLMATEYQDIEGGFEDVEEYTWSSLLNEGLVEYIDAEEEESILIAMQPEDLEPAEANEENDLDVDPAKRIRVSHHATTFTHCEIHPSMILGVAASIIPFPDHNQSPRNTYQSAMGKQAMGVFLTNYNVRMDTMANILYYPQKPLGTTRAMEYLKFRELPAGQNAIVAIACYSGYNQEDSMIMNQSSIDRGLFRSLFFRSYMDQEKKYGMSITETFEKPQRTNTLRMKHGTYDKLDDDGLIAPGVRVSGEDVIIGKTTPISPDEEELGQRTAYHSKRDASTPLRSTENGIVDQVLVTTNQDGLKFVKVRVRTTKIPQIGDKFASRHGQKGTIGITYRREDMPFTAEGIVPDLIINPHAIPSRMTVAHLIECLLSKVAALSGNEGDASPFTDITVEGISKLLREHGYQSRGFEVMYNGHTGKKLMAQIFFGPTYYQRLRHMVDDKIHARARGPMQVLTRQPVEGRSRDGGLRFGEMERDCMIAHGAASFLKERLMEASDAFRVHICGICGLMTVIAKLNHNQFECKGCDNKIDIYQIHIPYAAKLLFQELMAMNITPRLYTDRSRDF
UniProt Q08920: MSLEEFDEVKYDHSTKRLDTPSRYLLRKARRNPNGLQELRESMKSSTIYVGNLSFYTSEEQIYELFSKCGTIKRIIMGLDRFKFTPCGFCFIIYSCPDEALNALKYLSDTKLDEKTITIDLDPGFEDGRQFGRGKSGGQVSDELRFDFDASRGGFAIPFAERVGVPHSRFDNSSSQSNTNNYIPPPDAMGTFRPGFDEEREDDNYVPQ

T1: Nrd1-TAP (S. cerevisiae (strains isogenic to BY4741)) (UniProt P53617)
T1 sequence: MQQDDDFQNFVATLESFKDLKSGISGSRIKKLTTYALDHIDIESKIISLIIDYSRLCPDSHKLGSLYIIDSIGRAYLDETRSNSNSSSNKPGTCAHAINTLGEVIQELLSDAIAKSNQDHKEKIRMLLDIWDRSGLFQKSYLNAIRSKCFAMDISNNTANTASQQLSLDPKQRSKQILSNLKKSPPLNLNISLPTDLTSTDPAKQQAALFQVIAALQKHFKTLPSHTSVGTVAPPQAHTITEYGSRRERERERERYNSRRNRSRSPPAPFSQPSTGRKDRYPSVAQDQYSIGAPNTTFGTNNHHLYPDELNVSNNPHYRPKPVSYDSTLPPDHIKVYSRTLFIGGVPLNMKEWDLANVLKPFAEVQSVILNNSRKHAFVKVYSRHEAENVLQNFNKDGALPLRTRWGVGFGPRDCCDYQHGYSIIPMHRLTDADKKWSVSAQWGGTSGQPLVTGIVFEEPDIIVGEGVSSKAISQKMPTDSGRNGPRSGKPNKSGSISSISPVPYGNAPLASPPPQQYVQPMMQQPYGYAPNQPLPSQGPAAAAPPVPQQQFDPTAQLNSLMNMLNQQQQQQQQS

B1: Fip1 (protein, UniProt P45976 1-327)
chain: MSSSEDEDDKFLYGSDSELALPSSKRSRDDEADAGASSNPDIVKRQKFDSPVEETPATARDDRSDEDIYSDSSDDDSDSDLEVIISLGPDPTRLDAKLLDSYSTAATSSSKDVISVATDVSNTITKTSDERLITEGEANQGVTATTVKATESDGNVPKAMTGSIDLDKEGIFDSVGITTIDPEVLKEKPWRQPGANLSDYFNYGFNEFTWMEYLHRQEKLQQDYNPRRILMGLLSLQQQGKLNSANDTDSNLGNIIDNNNNVNNANMSNLNSNMGNSMSGTPNPPAPPMHPSFPPLPMFGSFPPFPMPGMMPPMNQQPNQNQNQNSK
B2: Nab3 (protein, UniProt P38996 1-802)
chain: MSDENHNSDVQDIPSPELSVDSNSNENELMNNSSADDGIEFDAPEEEREAEREEENEEQHELEDVNDEEEEDKEEKGEENGEVINTEEEEEEEHQQKGGNDDDDDDNEEEEEEEEDDDDDDDDDDDDEEEEEEEEEEGNDNSSVGSDSAAEDGEDEEDKKDKTKDKEVELRRETLEKEQKDVDEAIKKITREENDNTHFPTNMENVNYDLLQKQVKYIMDSNMLNLPQFQHLPQEEKMSAILAMLNSNSDTALSVPPHDSTISTTASASATSGARSNDQRKPPLSDAQRRMRFPRADLSKPITEEEHDRYAAYLHGENKITEMHNIPPKSRLFIGNLPLKNVSKEDLFRIFSPYGHIMQINIKNAFGFIQFDNPQSVRDAIECESQEMNFGKKLILEVSSSNARPQFDHGDHGTNSSSTFISSAKRPFQTESGDMYNDDNGAGYKKSRRHTVSCNIFVKRTADRTYAIEVFNRFRDGTGLETDMIFLKPRMELGKLINDAAYNGVWGVVLVNKTHNVDVQTFYKGSQGETKFDEYISISADDAVAIFNNIKNNRNNSRPTDYRAMSHQQNIYGAPPLPVPNGPAVGPPPQTNYYQGYSMPPPQQQQQQPYGNYGMPPPSHDQGYGSQPPIPMNQSYGRYQTSIPPPPPQQQIPQGYGRYQAGPPPQPPSQTPMDQQQLLSAIQNLPPNVVSNLLSMAQQQQQQPHAQQQLVGLIQSMQGQAPQQQQQQLGGYSSMNSSSPPPMSTNYNGQNISAKPSAPPMSHQPPPPQQQQQQQQQQQQQQQQPAGNNVQSLLDSLAKLQK
B3: Rna14 (protein, UniProt P25298 1-677)
chain: MSSSTTPDLLYPSADKVAEPSDNIHGDELRLRERIKDNPTNILSYFQLIQYLETQESYAKVREVYEQFHNTFPFYSPAWTLQLKGELARDEFETVEKILAQCLSGKLENNDLSLWSTYLDYIRRKNNLITGGQEARAVIVKAFQLVMQKCAIFEPKSSSFWNEYLNFLEQWKPFNKWEEQQRIDMLREFYKKMLCVPFDNLEKMWNRYTQWEQEINSLTARKFIGELSAEYMKARSLYQEWLNVTNGLKRASPINLRTANKKNIPQPGTSDSNIQQLQIWLNWIKWERENKLMLSEDMLSQRISYVYKQGIQYMIFSAEMWYDYSMYISENSDRQNILYTALLANPDSPSLTFKLSECYELDNDSESVSNCFDKCTQTLLSQYKKIASDVNSGEDNNTEYEQELLYKQREKLTFVFCVYMNTMKRISGLSAARTVFGKCRKLKRILTHDVYVENAYLEFQNQNDYKTAFKVLELGLKYFQNDGVYINKYLDFLIFLNKDSQIKTLFETSVEKVQDLTQLKEIYKKMISYESKFGNLNNVYSLEKRFFERFPQENLIEVFTSRYQIQNSNLIKKLELTYMYNEEEDSYFSSGNGDGHHGSYNMSSSDRKRLMEETGNNGNFSNKKFKRDSELPTEVLDLLSVIPKRQYFNTNLLDAQKLVNFLNDQVEIPTVESTKSG
B4: Rna15 (protein, UniProt P25299 1-296)
chain: MNRQSGVNAGVQNNPPSRVVYLGSIPYDQTEEQILDLCSNVGPVINLKMMFDPQTGRSKGYAFIEFRDLESSASAVRNLNGYQLGSRFLKCGYSSNSDISGVSQQQQQQYNNINGNNNNNGNNNNNSNGPDFQNSGNANFLSQKFPELPSGIDVNINMTTPAMMISSELAKKPKEVQLKFLQKFQEWTRAHPEDAVSLLELCPQLSFVTAELLLTNGICKVDDLIPLASRPQEEASATNNNSVNEVVDPAVLNKQKELLKQVLQLNDSQISILPDDERMAIWDLKQKALRGEFGAF
B5: Clp1 (protein, UniProt Q08685 1-445)
chain: MASLPGIDEHTTSEELITGDNEWHKLVIPKGSDWQIDLKAEGKLIVKVNSGIVEIFGTELAVDDEYTFQNWKFPIYAVEETELLWKCPDLTTNTITVKPNHTMKYIYNLHFMLEKIRMSNFEGPRVVIVGGSQTGKTSLSRTLCSYALKFNAYQPLYINLDPQQPIFTVPGCISATPISDILDAQLPTWGQSLTSGATLLHNKQPMVKNFGLERINENKDLYLECISQLGQVVGQRLHLDPQVRRSGCIVDTPSISQLDENLAELHHIIEKLNVNIMLVLCSETDPLWEKVKKTFGPELGNNNIFFIPKLDGVSAVDDVYKRSLQRTSIREYFYGSLDTALSPYAIGVDYEDLTIWKPSNVFDNEVGRVELFPVTITPSNLQHAIIAITFAERRADQATVIKSPILGFALITEVNEKRRKLRVLLPVPGRLPSKAMILTSYRYLE

How the values were obtained:
[1] = molecular target: T1, Nrd1-TAP (S. cerevisiae (strains isogenic to BY4741)); experiment: affinity purification with mass spectrometry; Tandem Affinity Purification (TAP) of the TAP-tagged bait from yeast lysate of WT or rtr1Δ cells (TAP lysis buffer: 40mM Hepes-KOH pH 7.5, 10% glycerol, 100mM NaCl, 0.1% Tween-20; lysate treated with DNase I and heparin); MudPIT-LC/MS/MS; SAINT probability and prey-prey correlation, n = 4 biological replicates per genotype
[2] = molecular target: Ssu72-FLAG (S. cerevisiae (strains isogenic to BY4741)) (UniProt P53538); experiment: affinity purification with mass spectrometry; single-step purification of the FLAG-tagged bait on anti-FLAG agarose (4°C overnight) from yeast lysate of WT or rtr1Δ cells, on-bead trypsin digestion; MudPIT-LC/MS/MS; SAINT probability and prey-prey correlation, n = 4 biological replicates per genotype
[3] = molecular target: Pcf11-FLAG (S. cerevisiae (strains isogenic to BY4741)) (UniProt P39081); experiment: as above
[4] = molecular target: Pcf11-TAP (S. cerevisiae (strains isogenic to BY4741)) (UniProt P39081); experiment: affinity purification with mass spectrometry; Pcf11 purifications from rtr1Δ cells only (cells lacking the CTD phosphatase Rtr1); MudPIT-LC/MS/MS; SAINT probability and prey-prey correlation
[5] = molecular target: Pcf11-TAP (S. cerevisiae (strains isogenic to BY4741)) (UniProt P39081); experiment: affinity purification with mass spectrometry; Tandem Affinity Purification (TAP) of the TAP-tagged bait from yeast lysate of WT or rtr1Δ cells (TAP lysis buffer: 40mM Hepes-KOH pH 7.5, 10% glycerol, 100mM NaCl, 0.1% Tween-20; lysate treated with DNase I and heparin); MudPIT-LC/MS/MS; SAINT probability and prey-prey correlation, n = 4 biological replicates per genotype
[6] = molecular target: T1, Nrd1-TAP (S. cerevisiae (strains isogenic to BY4741)); experiment: as above; remark: listed apart in the source
[7] = molecular target: Pcf11-TAP (S. cerevisiae (strains isogenic to BY4741)) (UniProt P39081); experiment: as above; remark: listed apart in the source

Row | Molecule | binding [1] | binding [3] | also measured
1 | Sen1 (from UniProt Q00416 1-2231) | binds |  | 
2 | Sto1 (from UniProt P34160 1-861) | binds |  | 
3 | Rpb1 (from UniProt P04050 1-1733) | binds |  | binding [2]: binds
4 | Pap1 (from UniProt P29468 1-568) |  | binds | 
5 | Rpb2 (from UniProt P08518 1-1224) |  |  | binding [4]: no binding (only cells lacking Rtr1 (rtr1Δ)); binding [5]: binds; binding [2]: binds
6 | Cbc2 (from UniProt Q08920 1-208) | binds |  | 
7 | B1 |  | binds | 
8 | B2 |  |  | binding [6]: binds
9 | B3 |  | binds | binding [7]: binds
10 | B4 |  | binds | binding [7]: binds
11 | B5 |  | binds | binding [7]: binds
